In PubChem BioAssay AID504648 (National Center for Advancing Translational Sciences (NCATS), 2011):
The campaign covered roughly 390,000 compounds. About 610 (0.16%) were called active. Inconclusive means that the source gave no clear call. Such entries were picked first, then a sample of the others. The call rests on the fitted dose curve; in most records, active means well fitted inhibition curve with a large enough effect; inconclusive means small, poorly fitted or top-dose-only effect, or effect the other way, or another doubt; inactive means no such curve, though single readings can be large or run the other way. A potency beside an inconclusive call is a rough fit, not a confirmed value.

Test: Nrf2 qHTS screen for inhibitors: counterscreen for cytotoxicity
Conditions: A549 ARE-Fluc cells, CellTiter-Fluor viability, 18-24 h; activity change, negative = cytotoxicity: at 46 µM (top of the series)
Outline: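 Cytotoxicity counterscreen: CellTiter-Fluor fluorescence was measured in A549 ARE_Fluc cells after 18-24 h of compound exposure in a concentration series. The subsequent BugLite luminescent read reports ARE-luciferase activity.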
On the % scale 0 is the no-effect control and ±100 the full control effect; potency means the concentration at half of the fitted maximal effect.

SMILES	activity change, negative = cytotoxicity	Potency
COc1ccccc1NC(C)=[N+](C)CCNS(=O)(=O)c1ccc(Cl)cc1	inactive: -1.11%	
COc1cc(/C=C/c2cc(C(=O)O)c3ccccc3n2)cc(OC)c1O		inconclusive: 29.1 µM [falling, partial curve, poor fit]
COc1ccc(C2=C(C)C(N3CCC(C(=O)Nc4ccc(F)cc4C)CC3)=NS2(=O)=O)cc1	inactive: -1.04%	
CCOP(=O)(OCC)C(Nc1cccc([N+](=O)[O-])c1)c1ccccc1 (centres undefined)	inactive: 0.396%	
O=C(NCCc1nc2ccccc2n1CCOc1ccccc1)C1CCCCC1		inconclusive: 18.4 µM [falling, single point]
CCCn1c(NCc2cccc(OC)c2O)nc2ccccc21	inactive: -1.14%	
O=C(CSC1c2ccccc2C(=O)N1c1ccccc1)N1CCOCC1 (centres undefined)		inconclusive: 16.4 µM [activator, partial curve, poor fit]
CC(C)NC(=O)c1cccc(Cn2cc(Cl)cn2)c1		inconclusive: 23.1 µM [falling, partial curve, poor fit]
O=C(NC1CCCc2ccccc21)c1ccc2c(c1)sc1nc(-c3ccccc3)cn12 (centres undefined)	inactive: 7.95%	
COc1ccccc1CNC(=O)CCCN1C(=O)CSc2c1c(C)nn2-c1ccccc1	inactive: -1.3%	
Cc1c(/C=N/NC(=O)CNc2ccccc2)c2ccccn2c1C(=O)c1ccc(Cl)cc1		inconclusive: 13 µM [falling, partial curve]
O=C1NN(c2ccc(F)cc2)C(=O)/C1=C\C=C\c1ccco1		inconclusive: 20.6 µM [falling, single point]
Cc1cc(C)cc(NC(=O)Nc2ccc3nc(N4CCN(C)CC4)cc(C)c3c2)c1		inconclusive: 20.6 µM [falling, single point]
C=CCOc1ccc(C[C@H](N)C(=O)NC[C@H]2O[C@@H](n3cnc4c(N)ncnc43)[C@H](O)[C@@H]2O)cc1	inactive: 1.19%	
Cc1c(C(=O)C(=O)N2c3ccc(F)cc3CCC2C)c2ccccc2n1C (centres undefined)	inactive: -13.5%	
O=C(O)CCC(=O)Nc1sc2c(c1C(=O)Nc1ccccc1)CCCCC2		inactive
COc1ccc2[nH]c(C)c(C(=O)CN3CCc4cc(OC)c(OC)cc4C3)c2c1		inconclusive: 18.4 µM [falling, partial curve, poor fit]
CCOC(=O)c1cccc(NS(=O)(=O)c2cc(-c3cnc(C4CC4)o3)ccc2C)c1	inactive: -12.7%	
COc1cccc(CN(C)C(=O)c2cccc(S(=O)(=O)N3CCN(c4ccccc4)CC3)c2)c1OC		inconclusive: 20.6 µM [falling, partial curve, poor fit]
O=C1NC[C@H](Cc2ccccc2)N(C[C@H]2CCCN2C[C@H](Cc2ccccc2)N2C[C@H](Cc3ccccc3)N(CC3CCCCCC3)C(=O)C2=O)C1=O		inconclusive: 29.1 µM [falling, single point]
COc1ccc(Cn2c(C(=O)O)c(CNCc3ccco3)c3ccc(OC)cc32)cc1		inconclusive: 10.3 µM [falling, partial curve]
CCOC(=O)/C(=N\Nc1ccc(Cl)cc1)c1csc(Nc2ccccc2)n1		inconclusive: 29.1 µM [falling, single point]

Sorted by count of non-hydrogen atoms (rising): part of the list above.
SMILES	activity change, negative = cytotoxicity	Potency
CC(C)NC(=O)c1cccc(Cn2cc(Cl)cn2)c1		inconclusive: 23.1 µM [falling, partial curve, poor fit]
CCOP(=O)(OCC)C(Nc1cccc([N+](=O)[O-])c1)c1ccccc1 (centres undefined)	inactive: 0.396%	
COc1ccc2[nH]c(C)c(C(=O)CN3CCc4cc(OC)c(OC)cc4C3)c2c1		inconclusive: 18.4 µM [falling, partial curve, poor fit]

(list continues)

SMILES	activity change, negative = cytotoxicity	Potency
O=C(C1CCN(S(=O)(=O)c2ccccc2)CC1)N1CCCCCC1	inactive: -0.0732%	
Cc1cnc2c3c(cc(Cl)c2c1)-c1ccccc1S(=O)(=O)N3		active: 16.4 µM
CCCOc1ccc(C(=O)N(Cc2ccccc2Cl)C2CCS(=O)(=O)C2)cc1 (centres undefined)	inactive: -6.94%	
COc1ccc(NC(=O)COC(=O)c2c3c(nc4ccccc24)CCCC3)cc1Cl		inconclusive: 18.4 µM [falling, single point]
Nc1ccc(Nc2nc(-c3cc4ccccc4oc3=O)cs2)cc1		inconclusive: 20.6 µM [falling, partial curve, poor fit]
Nc1ncnc2c1C(c1ccccc1)c1c(ccc3ccccc13)O2 (centres undefined)		inconclusive: 29.1 µM [falling, single point]
CC1CCCC(NC(=O)CCNS(=O)(=O)c2ccc(Br)cc2)C1C (centres undefined)		inconclusive: 29.1 µM [falling, partial curve, poor fit]
COc1cc(OC)c(-c2cc(C(=O)NCc3ccc(F)cc3)c3c(-c4ccccc4)[nH]nc3n2)cc1OC		inconclusive: 29.1 µM [falling, single point]
Cc1ccccc1-c1nn(-c2ccc(F)cc2F)cc1CNCCCN(C)C		inconclusive: 16.4 µM [falling, single point]
O=C(COc1ccc(F)cc1)NCC(c1ccc(Cl)cc1)N1CCCCC1 (centres undefined)	inactive: -0.0142%	
Cc1nc2c(C(=O)NCc3ccccc3)cnn2c(C)c1Cc1ccc(F)cc1		inconclusive: 29.1 µM [falling, single point]
Cc1ccc(S(=O)(=O)c2cc3c(=O)n4cccc(C)c4nc3n(Cc3ccncc3)c2=N)cc1		inconclusive: 25.9 µM [falling, partial curve, poor fit]
CCC(CC)C(=O)Nc1cc(-c2cccc(C)c2)nn1-c1ccccc1	inactive: 9.34%	
COc1cccc2cc(C(=O)NCc3ccc(C)cc3)c(=O)oc12	inactive: 0.608%	
COc1ccc(/C=N/Nc2ccc(C(F)(F)F)cc2[N+](=O)[O-])cc1O		inconclusive: 32.6 µM [falling, partial curve, poor fit]
COc1ccc(-c2nc3cc(NC(=O)Cc4ccc(Cl)cc4)ccc3o2)cc1OC		inconclusive: 23.1 µM [falling, partial curve, poor fit]
Cc1ccsc1CCN1C(=O)N(c2ccccc2)C(=O)C1CC(=O)Nc1ccc(F)cc1 (centres undefined)	inactive: -19.7%	
Cc1cccc(N2CCN(C(=O)Cn3cccc3C(=O)c3ccccc3)CC2)c1C		inconclusive: 23.1 µM [falling, single point]
CSc1sc(C(=O)N2CCc3ccccc32)cc1S(=O)(=O)C(C)C	inactive: 0.603%	
COc1ccc(Cl)cc1NC(=O)c1cc(-c2ccccc2O)n[nH]1	inactive: -1.69%	
CCOc1ccc(NC(=O)CSc2ncc(-c3ccc(F)cc3)n2Cc2ccco2)cc1		inconclusive: 20.6 µM [falling, single point]
O=C(CC1C(=O)NCCN1Cc1ccccc1C(F)(F)F)NC1CCCCCC1 (centres undefined)		inconclusive: 29.1 µM [falling, single point]
